{"sequences": {"note": "Chains of the proteins cited; added tags and fusions are not shown. Residues count along the entry.", "UniProt P12763, residues 19-359": "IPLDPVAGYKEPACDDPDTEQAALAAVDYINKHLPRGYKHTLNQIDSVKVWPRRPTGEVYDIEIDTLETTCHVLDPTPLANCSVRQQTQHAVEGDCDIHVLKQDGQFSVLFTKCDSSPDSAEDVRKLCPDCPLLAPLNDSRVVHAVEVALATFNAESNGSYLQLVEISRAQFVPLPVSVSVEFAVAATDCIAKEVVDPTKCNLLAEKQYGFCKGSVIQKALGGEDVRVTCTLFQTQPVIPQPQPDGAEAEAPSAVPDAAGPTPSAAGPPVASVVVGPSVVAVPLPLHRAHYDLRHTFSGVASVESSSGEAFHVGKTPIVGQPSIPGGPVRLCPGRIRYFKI", "UniProt P08670": "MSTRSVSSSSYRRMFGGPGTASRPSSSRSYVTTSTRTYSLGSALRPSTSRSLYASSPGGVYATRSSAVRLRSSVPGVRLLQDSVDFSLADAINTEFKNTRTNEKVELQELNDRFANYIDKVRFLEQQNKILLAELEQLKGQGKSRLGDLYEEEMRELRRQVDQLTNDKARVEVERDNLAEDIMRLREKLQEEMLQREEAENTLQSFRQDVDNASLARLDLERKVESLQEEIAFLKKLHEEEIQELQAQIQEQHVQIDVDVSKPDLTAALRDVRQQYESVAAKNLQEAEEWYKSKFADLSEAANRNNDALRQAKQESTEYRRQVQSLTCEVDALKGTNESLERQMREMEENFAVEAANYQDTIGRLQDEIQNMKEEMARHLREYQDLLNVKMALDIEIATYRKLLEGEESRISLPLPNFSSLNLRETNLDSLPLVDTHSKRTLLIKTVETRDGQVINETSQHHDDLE", "UniProt P11311, residues 60-1627": "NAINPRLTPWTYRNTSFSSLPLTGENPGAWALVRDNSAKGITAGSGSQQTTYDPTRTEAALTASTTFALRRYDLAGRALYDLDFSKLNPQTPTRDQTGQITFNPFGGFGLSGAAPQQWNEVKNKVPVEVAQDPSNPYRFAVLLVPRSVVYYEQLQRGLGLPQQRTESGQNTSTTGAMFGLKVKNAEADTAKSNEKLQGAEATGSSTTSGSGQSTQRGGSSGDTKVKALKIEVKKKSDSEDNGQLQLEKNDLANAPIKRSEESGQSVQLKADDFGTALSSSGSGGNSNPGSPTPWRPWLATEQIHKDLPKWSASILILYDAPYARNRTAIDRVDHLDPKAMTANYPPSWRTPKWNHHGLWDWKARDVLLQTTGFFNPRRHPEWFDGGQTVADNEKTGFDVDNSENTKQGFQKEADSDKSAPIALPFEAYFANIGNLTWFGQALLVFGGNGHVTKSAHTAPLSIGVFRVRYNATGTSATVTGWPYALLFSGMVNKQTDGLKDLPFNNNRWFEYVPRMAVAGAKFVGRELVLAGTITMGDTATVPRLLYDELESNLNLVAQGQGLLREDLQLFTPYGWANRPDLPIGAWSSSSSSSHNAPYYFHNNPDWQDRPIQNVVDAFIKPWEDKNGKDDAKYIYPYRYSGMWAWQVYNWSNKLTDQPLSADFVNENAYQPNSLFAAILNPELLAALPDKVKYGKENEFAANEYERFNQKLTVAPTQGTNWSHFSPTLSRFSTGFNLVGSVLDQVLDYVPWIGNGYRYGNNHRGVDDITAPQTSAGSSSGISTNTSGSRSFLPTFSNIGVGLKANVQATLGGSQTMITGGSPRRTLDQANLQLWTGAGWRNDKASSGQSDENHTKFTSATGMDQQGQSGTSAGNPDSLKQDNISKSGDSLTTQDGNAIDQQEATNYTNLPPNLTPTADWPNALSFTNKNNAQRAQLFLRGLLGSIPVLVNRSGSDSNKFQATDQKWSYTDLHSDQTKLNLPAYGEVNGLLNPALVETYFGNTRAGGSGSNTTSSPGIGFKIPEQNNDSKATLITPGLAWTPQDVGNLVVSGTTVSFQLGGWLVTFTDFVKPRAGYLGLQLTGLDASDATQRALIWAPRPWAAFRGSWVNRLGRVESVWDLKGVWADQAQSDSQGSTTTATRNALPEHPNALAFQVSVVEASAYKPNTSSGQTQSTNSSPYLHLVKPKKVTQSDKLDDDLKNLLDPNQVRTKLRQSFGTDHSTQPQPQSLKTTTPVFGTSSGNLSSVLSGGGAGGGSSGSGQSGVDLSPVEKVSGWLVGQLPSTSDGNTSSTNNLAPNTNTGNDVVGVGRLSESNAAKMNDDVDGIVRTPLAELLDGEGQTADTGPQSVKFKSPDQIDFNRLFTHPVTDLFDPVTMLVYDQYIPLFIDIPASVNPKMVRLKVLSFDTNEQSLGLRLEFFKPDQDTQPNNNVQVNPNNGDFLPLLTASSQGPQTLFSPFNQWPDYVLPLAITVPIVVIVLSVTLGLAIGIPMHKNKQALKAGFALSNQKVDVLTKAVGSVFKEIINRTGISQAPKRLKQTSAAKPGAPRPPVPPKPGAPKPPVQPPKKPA", "UniProt P04406": "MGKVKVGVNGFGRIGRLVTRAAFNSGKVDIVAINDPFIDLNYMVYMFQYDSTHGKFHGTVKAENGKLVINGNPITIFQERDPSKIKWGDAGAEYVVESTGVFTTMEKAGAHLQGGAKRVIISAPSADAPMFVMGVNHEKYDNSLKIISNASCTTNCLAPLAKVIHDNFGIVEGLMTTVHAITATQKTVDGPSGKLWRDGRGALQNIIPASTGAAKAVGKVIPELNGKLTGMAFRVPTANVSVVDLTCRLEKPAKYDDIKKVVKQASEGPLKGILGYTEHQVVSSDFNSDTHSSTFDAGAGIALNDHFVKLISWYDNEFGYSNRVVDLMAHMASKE", "UniProt P08729": "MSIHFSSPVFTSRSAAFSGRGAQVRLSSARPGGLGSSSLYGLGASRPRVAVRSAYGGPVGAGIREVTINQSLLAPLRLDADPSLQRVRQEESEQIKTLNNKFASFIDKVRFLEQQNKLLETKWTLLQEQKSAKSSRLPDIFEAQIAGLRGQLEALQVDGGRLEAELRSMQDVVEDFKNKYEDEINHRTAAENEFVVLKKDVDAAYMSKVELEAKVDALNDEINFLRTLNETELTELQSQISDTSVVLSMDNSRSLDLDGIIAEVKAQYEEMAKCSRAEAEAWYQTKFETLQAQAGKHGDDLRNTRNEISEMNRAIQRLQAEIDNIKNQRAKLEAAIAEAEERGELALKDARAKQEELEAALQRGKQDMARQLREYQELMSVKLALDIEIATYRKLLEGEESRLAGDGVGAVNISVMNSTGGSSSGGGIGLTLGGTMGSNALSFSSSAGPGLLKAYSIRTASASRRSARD"}, "source": "paper PMC7156367", "about": "“Cell surface processing of the P1 adhesin of Mycoplasma pneumoniae identifies novel domains that bind host molecules” (Scientific Reports, 2020)", "molecules": {"B1": {"name": "cytokeratin 18 (protein, UniProt P05783 1-430)", "chain": "MSFTTRSTFSTNYRSLGSVQAPSYGARPVSSAASVYAGAGGSGSRISVSRSTSFRGGMGSGGLATGIAGGLAGMGGIQNEKETMQSLNDRLASYLDRVRSLETENRRLESKIREHLEKKGPQVRDWSHYFKIIEDLRAQIFANTVDNARIVLQIDNARLAADDFRVKYETELAMRQSVENDIHGLRKVIDDTNITRLQLETEIEALKEELLFMKKNHEEEVKGLQAQIASSGLTVEVDAPKSQDLAKIMADIRAQYDELARKNREELDKYWSQQIEESTTVVTTQSAEVGAAETTLTELRRTVQSLEIDLDSMRNLKASLENSLREVEARYALQMEQLNGILLHLESELAQTRAEGQRQAQEYEALLNIKVKLEAEIATYRRLLEDGEDFNLGDALDSSNSMQTIQKTTTRRIVDGKVVSETNDTKVLRH"}}, "key": {"[1]": {"molecular_target": "T1, P1-15, synthetic C-terminal peptide of P1 adhesin with N-terminal biotin (Mycoplasma pneumoniae)", "T1 sequence (peptide, N-terminal biotin tag)": "PGAPKPPVQPPKKPA", "test": "affinity purification with mass spectrometry; 1 mg biotinylated P1-15 on Avidin Agarose as bait; native A549 cell lysate (1% C7BzO in PBS), 16 h at 4 °C; four PBS washes; eluted with urea/thiourea; uncoupled avidin agarose as control; 1D-SDS PAGE and LC-MS/MS; only the target purified"}, "[2]": {"molecular_target": "Bovine fetuin (bait of affinity chromatography) (bovine) (UniProt P12763)", "test": "affinity purification with mass spectrometry; host protein bound to Avidin Agarose as bait; native M. pneumoniae lysate (1% C7BzO in PBS, pH 7.8) as prey; washed with PBS, eluted with 7 M urea, 2 M thiourea, 40 mM Tris-HCl, 1% C7BzO; 1D-SDS PAGE and LC-MS/MS; only the target purified"}}, "note": "Results are given in words; binding and its absence hold for the method and conditions named. In cells and extracts the contact can be indirect. Here binding means that the protein was enriched with, or labelled near, the bait; the list need not be complete. For some assays here: No binding means not detected with the bait. For some assays here: Tags and fused reporters may be left off the sequences shown.", "data": [{"molecule": "vimentin (from UniProt P08670 1-466)", "values": [{"measurement": "binding", "setting": "[1]", "value": "binds"}]}, {"molecule": "P1 adhesin, full length proteoform without the N-terminal signal sequence (from UniProt P11311 60-1627)", "values": [{"measurement": "binding", "setting": "[2]", "value": "binds"}]}, {"molecule": "glyceraldehyde-3-phosphate dehydrogenase (from UniProt P04406 1-335) (enzyme)", "values": [{"measurement": "binding", "setting": "[1]", "value": "no binding"}]}, {"molecule": "cytokeratin 7 (from UniProt P08729 1-469)", "values": [{"measurement": "binding", "setting": "[1]", "value": "binds"}]}, {"molecule": "B1", "values": [{"measurement": "binding", "setting": "[1]", "value": "binds"}]}]}
